Assay results as given in article PMC3902904, “Intrinsically disordered regions of nucleophosmin/B23 regulate its RNA binding activity through their inter- and intra-molecular association” (Nucleic Acids Research, 2013).
These are yes or no findings as the source states them, for the method shown.

Chains of the proteins cited; added tags and fusions are not shown. Residues count along the entry.
GST-B23.1-A (P06748, residues 120-188): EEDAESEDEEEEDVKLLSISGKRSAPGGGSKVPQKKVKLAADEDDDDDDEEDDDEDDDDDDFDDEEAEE
GST-B23.1-CR1.5 (P06748, residues 242-294): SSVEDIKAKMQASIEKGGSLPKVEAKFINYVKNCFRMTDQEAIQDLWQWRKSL

Target: GST-B23.1-A (human) (UniProt P06748)
Assay: condition: up to 4.0 µg GST-B23.1-CR1.5 with 0.5 µg GST-B23.1-A; native gel or EMSA; GST-B23.1-A (0.5 µg) mixed with increasing amounts (0.5, 1.0, 2.0, 4.0 µg) of the other GST-tagged fragment in 10 µl buffer H, 30 min, room temperature; 6% native PAGE in 0.5x TBE, CBB staining; both purified

## GST-B23.1-CR1.5 (from UniProt P06748 242-294) (domain or fragment)
  binding: no binding
